Data published in US20100087466A1, “NOVEL SMALL MOLECULE DNAK INHIBITORS” (priority 2008, published 2010).
Like-named read-outs stand apart in the source and are kept apart here. At least one compound was matched to its structure with a doubt left. No end group written: not given here.

Chains of the proteins cited; added tags and fusions are not shown. Residues count along the entry.
UniProt P0A6Y8, 2-638: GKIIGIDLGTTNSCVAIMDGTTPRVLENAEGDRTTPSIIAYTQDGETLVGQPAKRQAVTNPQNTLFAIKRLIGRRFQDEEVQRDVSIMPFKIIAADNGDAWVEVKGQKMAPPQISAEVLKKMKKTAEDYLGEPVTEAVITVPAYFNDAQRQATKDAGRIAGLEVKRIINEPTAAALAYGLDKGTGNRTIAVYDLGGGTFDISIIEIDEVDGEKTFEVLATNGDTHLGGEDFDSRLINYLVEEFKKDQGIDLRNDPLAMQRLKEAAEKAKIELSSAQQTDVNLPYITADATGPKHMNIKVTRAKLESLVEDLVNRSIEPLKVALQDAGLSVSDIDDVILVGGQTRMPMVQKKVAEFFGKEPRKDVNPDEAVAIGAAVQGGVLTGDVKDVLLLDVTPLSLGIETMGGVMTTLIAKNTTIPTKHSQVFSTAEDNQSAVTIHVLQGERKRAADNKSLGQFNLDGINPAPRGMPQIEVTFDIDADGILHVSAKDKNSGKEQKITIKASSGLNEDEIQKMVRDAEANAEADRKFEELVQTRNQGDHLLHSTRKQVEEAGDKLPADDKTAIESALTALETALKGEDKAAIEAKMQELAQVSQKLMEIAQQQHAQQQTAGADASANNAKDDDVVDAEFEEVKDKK

Target: DnaK (Escherichia coli, UniProt P0A6Y8)
Assay: DnaK Inhibition Assay (DnaK induced refolding of denatured firefly luciferase)
Format: biochemical, E. coli
Protocol: Inhibition of the bacterial DnaK chaperone system may be evaluated by inhibition of the DnaK induced refolding of denatured firefly luciferase. More specifically, firefly luciferase is denatured by treatment with 8N guanidium hydrochloride at room temperature for 30 mins and then 5° C. for 1 h. After dilution into cold MOPS buffer augmented with ATP (2.5 mM) and DTT (12.5 mM) and standing for a further hour, the denatured luciferase is refolded by addition to a mixture of chaperone proteins in MOPS buffer, resulting in a reaction mixture containing denatured luciferase (24 nM), DnaK (200 nM), DnaJ (100 nM) and GrpE (400 nM). The extent of refolding is determined by addition of a luciferase substrate and measurement of the emitted chemoluminescence. In this format the substrate is the commercially available luciferase “Steady-Glo” reagent from Promega, Inc. Inhibition of DnaK induced refolding is determined by premixing the chaperone proteins with the test agent at concentrations of test agent ranging from 1-100 μg/mL. […]
Inhibition of the bacterial DnaK chaperone system was evaluated by inhibition of the DnaK induced refolding of denatured firefly luciferase. […] The extent of refolding was determined by addition of a luciferase substrate and measurement of the emitted chemoluminescence. […]

With “VDKGSYLPRPTPPRPIYNRN-NH2 [pyrrhocoricin, reference compound]” the IC50 (read-out: DnaK IC50(μg/ml), DnaK 200 nM, DnaJ 100 nM, GrpE 400 nM) was 35 µM and the IC50 (read-out: DnaK IC50, DnaK 200 nM, DnaJ 100 nM, GrpE 400 nM) was 29 µM.
